Test results published in the supplement of paper PMC10849652.
Some of the results follow.

By UniProt entry, the sequences of proteins in these tests, tags left out. Where a name states a change or a piece, a line headed by the entry shows the natural chain unless it says otherwise.
UniProt Q9Y587: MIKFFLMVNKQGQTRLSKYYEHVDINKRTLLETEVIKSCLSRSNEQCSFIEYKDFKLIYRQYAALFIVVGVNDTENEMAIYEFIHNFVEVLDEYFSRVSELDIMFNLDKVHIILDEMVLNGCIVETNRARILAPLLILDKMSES
UniProt Q0VD83: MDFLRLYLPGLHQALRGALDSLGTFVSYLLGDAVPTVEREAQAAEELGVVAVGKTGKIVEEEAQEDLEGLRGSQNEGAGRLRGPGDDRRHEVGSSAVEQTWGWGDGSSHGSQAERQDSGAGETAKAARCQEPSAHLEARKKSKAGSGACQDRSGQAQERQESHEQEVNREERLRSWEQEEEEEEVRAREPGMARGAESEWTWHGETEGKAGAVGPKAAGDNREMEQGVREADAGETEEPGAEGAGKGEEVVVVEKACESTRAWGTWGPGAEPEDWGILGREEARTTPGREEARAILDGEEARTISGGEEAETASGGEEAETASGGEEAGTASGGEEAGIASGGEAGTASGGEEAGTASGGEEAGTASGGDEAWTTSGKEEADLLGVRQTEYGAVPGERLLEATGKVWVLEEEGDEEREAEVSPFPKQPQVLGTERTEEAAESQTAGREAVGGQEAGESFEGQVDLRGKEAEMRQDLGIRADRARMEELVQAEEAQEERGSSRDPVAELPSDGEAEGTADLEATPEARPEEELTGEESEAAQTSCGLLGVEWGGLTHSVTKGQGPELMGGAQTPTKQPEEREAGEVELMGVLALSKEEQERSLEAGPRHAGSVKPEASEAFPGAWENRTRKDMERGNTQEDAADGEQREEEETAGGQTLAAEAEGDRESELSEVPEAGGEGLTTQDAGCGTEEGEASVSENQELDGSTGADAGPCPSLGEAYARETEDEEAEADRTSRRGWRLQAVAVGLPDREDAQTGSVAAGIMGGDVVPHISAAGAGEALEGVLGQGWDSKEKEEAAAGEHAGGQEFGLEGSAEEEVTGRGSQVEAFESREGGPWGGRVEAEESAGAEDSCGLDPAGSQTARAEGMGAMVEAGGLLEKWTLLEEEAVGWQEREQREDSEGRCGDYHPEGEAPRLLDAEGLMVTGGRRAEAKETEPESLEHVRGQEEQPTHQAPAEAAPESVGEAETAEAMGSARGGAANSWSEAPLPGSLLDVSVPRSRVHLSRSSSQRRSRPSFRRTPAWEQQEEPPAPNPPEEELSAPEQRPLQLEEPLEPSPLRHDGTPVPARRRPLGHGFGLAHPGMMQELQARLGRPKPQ
UniProt Q96GX9: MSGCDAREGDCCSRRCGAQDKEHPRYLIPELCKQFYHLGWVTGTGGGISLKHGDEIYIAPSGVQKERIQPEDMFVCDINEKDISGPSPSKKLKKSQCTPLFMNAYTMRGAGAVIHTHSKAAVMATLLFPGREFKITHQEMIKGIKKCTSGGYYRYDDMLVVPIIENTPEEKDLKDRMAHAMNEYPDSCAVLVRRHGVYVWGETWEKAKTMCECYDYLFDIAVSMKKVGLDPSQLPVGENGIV
UniProt P61966: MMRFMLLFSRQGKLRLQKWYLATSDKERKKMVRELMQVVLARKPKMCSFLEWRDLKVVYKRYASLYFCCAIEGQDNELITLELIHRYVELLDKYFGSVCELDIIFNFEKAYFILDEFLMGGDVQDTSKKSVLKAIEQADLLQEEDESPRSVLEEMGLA
UniProt P78540: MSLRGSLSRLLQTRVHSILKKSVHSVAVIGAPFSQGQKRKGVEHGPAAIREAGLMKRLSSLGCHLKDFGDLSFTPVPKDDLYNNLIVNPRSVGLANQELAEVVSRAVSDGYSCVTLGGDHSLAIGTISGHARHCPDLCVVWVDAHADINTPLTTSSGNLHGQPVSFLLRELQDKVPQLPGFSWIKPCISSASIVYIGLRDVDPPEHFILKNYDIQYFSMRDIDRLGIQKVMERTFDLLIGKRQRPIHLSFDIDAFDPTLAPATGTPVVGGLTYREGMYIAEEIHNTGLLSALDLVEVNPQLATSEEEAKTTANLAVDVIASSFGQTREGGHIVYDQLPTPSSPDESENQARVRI
UniProt Q92619: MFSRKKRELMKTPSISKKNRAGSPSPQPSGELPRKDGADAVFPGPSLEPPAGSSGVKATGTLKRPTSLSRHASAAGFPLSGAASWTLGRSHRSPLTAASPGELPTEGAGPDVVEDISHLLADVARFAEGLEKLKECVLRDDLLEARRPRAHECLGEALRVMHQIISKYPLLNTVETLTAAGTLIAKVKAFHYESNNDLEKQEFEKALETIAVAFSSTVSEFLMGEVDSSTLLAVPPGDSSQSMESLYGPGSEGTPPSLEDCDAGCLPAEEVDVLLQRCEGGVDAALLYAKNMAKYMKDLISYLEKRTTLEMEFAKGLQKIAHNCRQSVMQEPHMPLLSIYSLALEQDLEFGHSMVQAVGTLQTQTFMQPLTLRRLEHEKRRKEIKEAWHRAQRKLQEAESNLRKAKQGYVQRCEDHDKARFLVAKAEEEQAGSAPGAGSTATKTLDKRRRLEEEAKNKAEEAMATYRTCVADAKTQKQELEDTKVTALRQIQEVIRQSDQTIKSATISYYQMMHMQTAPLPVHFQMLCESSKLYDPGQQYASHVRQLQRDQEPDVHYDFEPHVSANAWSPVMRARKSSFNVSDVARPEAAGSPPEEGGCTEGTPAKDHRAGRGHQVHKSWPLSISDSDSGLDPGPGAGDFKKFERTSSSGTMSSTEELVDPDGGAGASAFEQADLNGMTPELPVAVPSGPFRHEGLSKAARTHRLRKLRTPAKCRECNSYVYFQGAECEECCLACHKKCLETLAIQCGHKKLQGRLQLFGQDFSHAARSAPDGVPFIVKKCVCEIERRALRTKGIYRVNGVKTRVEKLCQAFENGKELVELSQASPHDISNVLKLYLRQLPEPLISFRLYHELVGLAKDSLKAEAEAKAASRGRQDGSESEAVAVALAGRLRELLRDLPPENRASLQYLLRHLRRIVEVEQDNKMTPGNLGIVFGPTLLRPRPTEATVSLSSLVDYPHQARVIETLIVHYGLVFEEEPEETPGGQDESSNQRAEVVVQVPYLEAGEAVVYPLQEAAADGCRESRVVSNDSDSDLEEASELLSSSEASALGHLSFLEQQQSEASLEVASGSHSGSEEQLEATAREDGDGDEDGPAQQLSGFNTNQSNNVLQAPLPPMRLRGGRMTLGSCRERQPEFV
UniProt Q9UKG1: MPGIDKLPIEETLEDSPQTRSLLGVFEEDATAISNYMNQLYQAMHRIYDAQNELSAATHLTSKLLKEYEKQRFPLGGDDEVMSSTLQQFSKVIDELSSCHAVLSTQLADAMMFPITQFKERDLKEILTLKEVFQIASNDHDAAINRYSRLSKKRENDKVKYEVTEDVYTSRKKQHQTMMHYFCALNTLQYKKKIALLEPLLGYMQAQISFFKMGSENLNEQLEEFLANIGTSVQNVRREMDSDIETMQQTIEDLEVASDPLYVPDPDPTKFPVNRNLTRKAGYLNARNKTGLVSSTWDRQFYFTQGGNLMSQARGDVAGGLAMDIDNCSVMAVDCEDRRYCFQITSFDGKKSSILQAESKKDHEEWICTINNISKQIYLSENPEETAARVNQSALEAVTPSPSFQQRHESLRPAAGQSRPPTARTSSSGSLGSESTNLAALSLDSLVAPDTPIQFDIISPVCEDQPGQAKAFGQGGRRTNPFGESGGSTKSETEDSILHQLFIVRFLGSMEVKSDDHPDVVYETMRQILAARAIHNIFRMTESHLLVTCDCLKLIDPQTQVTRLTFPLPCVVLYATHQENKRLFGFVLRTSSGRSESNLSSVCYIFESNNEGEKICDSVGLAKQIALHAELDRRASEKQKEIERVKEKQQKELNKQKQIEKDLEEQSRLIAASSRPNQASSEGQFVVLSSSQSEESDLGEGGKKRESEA
UniProt Q9H8Y5: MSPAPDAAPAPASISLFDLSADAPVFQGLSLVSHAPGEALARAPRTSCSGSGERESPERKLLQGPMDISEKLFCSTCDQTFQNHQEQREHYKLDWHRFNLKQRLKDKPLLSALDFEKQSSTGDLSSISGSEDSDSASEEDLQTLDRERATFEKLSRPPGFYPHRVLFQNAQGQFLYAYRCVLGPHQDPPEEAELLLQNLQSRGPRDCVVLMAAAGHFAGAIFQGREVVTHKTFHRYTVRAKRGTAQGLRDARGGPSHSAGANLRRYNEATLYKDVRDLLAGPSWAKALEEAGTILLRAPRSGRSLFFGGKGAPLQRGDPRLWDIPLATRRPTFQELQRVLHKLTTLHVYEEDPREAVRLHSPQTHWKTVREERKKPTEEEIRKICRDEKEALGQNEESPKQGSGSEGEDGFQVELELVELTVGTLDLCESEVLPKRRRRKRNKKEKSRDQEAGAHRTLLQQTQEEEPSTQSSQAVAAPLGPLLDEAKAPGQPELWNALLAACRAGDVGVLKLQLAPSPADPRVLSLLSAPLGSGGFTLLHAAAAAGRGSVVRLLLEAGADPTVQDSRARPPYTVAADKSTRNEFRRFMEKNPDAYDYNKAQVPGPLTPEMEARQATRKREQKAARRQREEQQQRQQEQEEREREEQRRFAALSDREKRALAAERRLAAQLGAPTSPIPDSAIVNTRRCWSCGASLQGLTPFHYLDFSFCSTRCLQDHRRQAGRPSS
UniProt Q9HDC9: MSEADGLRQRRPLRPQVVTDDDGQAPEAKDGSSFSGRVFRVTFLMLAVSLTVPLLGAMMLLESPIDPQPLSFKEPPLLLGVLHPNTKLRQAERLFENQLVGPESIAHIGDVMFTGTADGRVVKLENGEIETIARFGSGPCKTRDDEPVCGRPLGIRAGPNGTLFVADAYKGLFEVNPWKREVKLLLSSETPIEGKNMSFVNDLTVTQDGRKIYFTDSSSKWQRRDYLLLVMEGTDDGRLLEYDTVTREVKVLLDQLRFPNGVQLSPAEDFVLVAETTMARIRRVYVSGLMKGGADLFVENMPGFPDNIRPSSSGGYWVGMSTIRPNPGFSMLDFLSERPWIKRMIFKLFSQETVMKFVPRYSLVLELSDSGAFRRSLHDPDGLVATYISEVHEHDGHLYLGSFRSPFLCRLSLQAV
UniProt P13798: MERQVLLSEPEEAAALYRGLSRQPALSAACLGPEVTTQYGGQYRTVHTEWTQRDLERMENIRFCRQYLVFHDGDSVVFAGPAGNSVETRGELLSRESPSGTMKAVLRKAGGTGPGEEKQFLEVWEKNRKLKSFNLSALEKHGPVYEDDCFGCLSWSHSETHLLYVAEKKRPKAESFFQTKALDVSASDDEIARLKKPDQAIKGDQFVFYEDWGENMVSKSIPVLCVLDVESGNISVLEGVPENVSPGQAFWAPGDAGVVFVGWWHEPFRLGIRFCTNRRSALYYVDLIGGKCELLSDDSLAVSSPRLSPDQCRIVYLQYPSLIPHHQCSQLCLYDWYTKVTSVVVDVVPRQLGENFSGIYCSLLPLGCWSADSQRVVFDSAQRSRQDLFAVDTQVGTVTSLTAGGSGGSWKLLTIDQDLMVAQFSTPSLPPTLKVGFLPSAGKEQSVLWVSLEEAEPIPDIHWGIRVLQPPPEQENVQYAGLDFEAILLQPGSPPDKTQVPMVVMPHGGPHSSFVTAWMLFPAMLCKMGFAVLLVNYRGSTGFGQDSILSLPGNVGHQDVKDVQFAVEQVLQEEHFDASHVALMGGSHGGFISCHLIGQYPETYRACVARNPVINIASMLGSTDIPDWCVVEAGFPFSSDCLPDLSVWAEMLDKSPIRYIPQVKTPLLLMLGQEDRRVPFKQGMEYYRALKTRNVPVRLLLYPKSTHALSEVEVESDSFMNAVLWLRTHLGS
UniProt P84077: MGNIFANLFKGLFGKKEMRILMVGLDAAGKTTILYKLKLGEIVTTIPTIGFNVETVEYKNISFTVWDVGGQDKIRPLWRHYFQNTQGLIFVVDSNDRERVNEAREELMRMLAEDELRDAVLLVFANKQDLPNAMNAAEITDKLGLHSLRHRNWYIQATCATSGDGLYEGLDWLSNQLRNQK
UniProt Q9BXS5: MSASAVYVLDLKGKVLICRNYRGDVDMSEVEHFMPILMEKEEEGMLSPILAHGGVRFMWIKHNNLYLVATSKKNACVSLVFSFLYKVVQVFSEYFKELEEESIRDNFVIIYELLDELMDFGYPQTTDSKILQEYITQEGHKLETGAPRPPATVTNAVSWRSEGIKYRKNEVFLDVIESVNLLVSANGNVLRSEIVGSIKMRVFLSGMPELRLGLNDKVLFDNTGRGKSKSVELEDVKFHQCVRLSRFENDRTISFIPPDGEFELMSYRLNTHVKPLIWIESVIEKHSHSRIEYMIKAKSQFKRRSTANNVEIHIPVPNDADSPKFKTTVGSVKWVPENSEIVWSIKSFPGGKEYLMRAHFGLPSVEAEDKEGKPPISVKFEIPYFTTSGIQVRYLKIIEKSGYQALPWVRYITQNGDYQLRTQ
UniProt Q96BI3, whole entry, looked up: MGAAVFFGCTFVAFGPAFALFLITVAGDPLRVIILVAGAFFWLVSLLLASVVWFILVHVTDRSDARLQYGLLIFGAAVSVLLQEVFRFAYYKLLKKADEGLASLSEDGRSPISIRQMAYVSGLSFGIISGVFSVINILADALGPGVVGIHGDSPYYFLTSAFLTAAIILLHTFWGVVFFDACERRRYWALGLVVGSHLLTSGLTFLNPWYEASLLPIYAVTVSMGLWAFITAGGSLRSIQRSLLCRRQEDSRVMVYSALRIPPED

Legend:
Experiment in all cases: log2 fold change, soluble protein after heating vs DMSO (PISA); higher = thermal stabilisation; K562 cells, 10 uM, 30 min; active = over 0.2 and 3.5 SD of the protein, either way, in both replicates (recomputed)
[1] = compound: COC1=CC=C(C=C1)CN2C=CC3=C2C=C(C=C3)C(=O)NO
How it was run: (§1)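 Quantification of soluble protein used TMTpro 16plex LC-MS/MS, with channel sums equalised. Samples were the supernatant after 21,000xg for 90 min of pooled aliquots from K562 cells (2×10^6 cells/mL) treated with 10 μM compound for 30 min, heated for 3 min over 48°C-58°C, and extracted in PBS with 0.5% NP-40 at 4°C. Values, from duplicates, describe thermal stability against control samples on a log2 fold-change scale.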

filanesib = compound: CON(C)C(=O)N1N=C(c2cc(F)ccc2F)S[C@@]1(CCCN)c1ccccc1 [filanesib]
How it was run: as §1

zotarolimus = compound: CO[C@H]1C[C@@H]2CC[C@@H](C)[C@@](O)(O2)C(=O)C(=O)N2CCCC[C@H]2C(=O)O[C@H]([C@H](C)C[C@@H]2CC[C@H](n3cnnn3)[C@H](OC)C2)CC(=O)[C@H](C)/C=C(\C)[C@@H](O)[C@@H](OC)C(=O)[C@H](C)C[C@H](C)/C=C/C=C/C=C/1C [zotarolimus]
How it was run: as §1

idasanutlin = compound: COc1cc(C(=O)O)ccc1NC(=O)[C@@H]1N[C@@H](CC(C)(C)C)[C@](C#N)(c2ccc(Cl)cc2F)[C@H]1c1cccc(Cl)c1F [idasanutlin]
How it was run: as §1

alisertib = compound: COc1cc(Nc2ncc3c(n2)-c2ccc(Cl)cc2C(c2c(F)cccc2OC)=NC3)ccc1C(=O)O [alisertib]
How it was run: as §1

[2] = compound: COc1cc2nc(-c3cc(F)ccc3O)nc(N[C@@H]3CNC[C@H]3C(C)(C)O)c2cc1OC
How it was run: as §1

gefitinib = compound: COc1cc2ncnc(Nc3ccc(F)c(Cl)c3)c2cc1OCCCN1CCOCC1 [gefitinib]
How it was run: as §1

[3] = compound: COc1cccc2cc(-c3nc([C@H]4CC[C@H](C(=O)O)CC4)n4ncnc(N)c34)[nH]c12
How it was run: as §1

lapatinib = compound: CS(=O)(=O)CCNCc1ccc(-c2ccc3ncnc(Nc4ccc(OCc5cccc(F)c5)c(Cl)c4)c3c2)o1 [lapatinib]
How it was run: as §1

pictilisib = compound: CS(=O)(=O)N1CCN(Cc2cc3nc(-c4cccc5[nH]ncc45)nc(N4CCOCC4)c3s2)CC1 [pictilisib]
How it was run: as §1

Measured: log2 fold change

APOOL (UniProt Q6UXV4)
inactive: [1] -0.01 | filanesib -0.031 | zotarolimus -0.029 | idasanutlin -0.026 | alisertib -0.061 | [2] -0.006 | gefitinib 0.003 | [3] 0.072 | lapatinib -0.003 | pictilisib 0.013

AP4S1 (UniProt Q9Y587)
inactive: [1] -0.039 | filanesib 0.029 | zotarolimus 0.126 | idasanutlin -0.061 | alisertib -0.098 | [2] -0.002 | gefitinib -0.083 | [3] 0.036 | lapatinib -0.047

AP2B1 isoform 2 (UniProt P63010)
inactive: [1] 0.08 | filanesib 0.022 | zotarolimus 0.036 | idasanutlin -0.019 | alisertib -0.062 | [2] 0.012 | gefitinib 0.01 | [3] 0.01 | lapatinib 0.049 | pictilisib 0.015

APOBR (UniProt Q0VD83)
inactive: [1] -0.133 | filanesib 0.01 | zotarolimus -0.039 | idasanutlin 0.007 | alisertib -0.067 | [2] 0.034 | gefitinib 0.024 | [3] 0.055 | lapatinib -0.046 | pictilisib 0.042

APIP (UniProt Q96GX9)
inactive: [1] -0.036 | filanesib -0.046 | zotarolimus -0.055 | idasanutlin -0.061 | alisertib -0.005 | [2] -0.024 | gefitinib 0.011 | [3] 0.065 | lapatinib 0.005 | pictilisib 0.058

AP1S1 (UniProt P61966)
inactive: [1] -0.103 | filanesib -0.001 | zotarolimus 0.034 | idasanutlin -0.1 | alisertib -0.048 | [2] -0.033 | gefitinib -0.009 | [3] 0.018 | lapatinib 0.006 | pictilisib 0.043

ANKRD29 (UniProt Q8N6D5)
inactive: [1] 0.339 | filanesib -0.122 | zotarolimus 0.011 | idasanutlin -0.077 | alisertib -0.044 | [2] 0.279 | gefitinib -0.066 | [3] -0.08 | lapatinib -0.126 | pictilisib 0.177

ANKS1A (UniProt Q92625)
inactive: [1] -0.047 | filanesib -0.042 | zotarolimus 0.08 | idasanutlin -0.012

ANKFY1 isoform 4 (UniProt Q9P2R3)
inactive: [1] -0.099 | filanesib -0.183 | zotarolimus 0.027 | idasanutlin -0.026 | alisertib -0.019 | [2] -0.123 | gefitinib 0.05 | [3] -0.075 | lapatinib -0.022 | pictilisib -0.185

ANKRD27 (UniProt Q96NW4)
inactive: [1] 0.358

ARG2 (UniProt P78540)
inactive: [1] -0.057 | filanesib -0.066 | zotarolimus -0.08 | idasanutlin -0.066 | alisertib 0.04 | [2] -0.033 | gefitinib -0.025 | [3] 0.092 | lapatinib 0.018 | pictilisib 0.027

ARHGAP45 isoform 2 (UniProt Q92619)
inactive: [1] -0.012 | filanesib 0.036 | zotarolimus -0.043 | idasanutlin 0.08 | alisertib -0.011 | [2] -0.026 | gefitinib 0.072 | [3] 0.089 | lapatinib 0.001 | pictilisib 0.076

APPL1 (UniProt Q9UKG1)
inactive: [1] -0.024 | filanesib 0.069 | zotarolimus 0.018 | idasanutlin -0.076 | alisertib -0.001 | [2] 0.079 | gefitinib -0.106 | [3] -0.023 | lapatinib -0.025 | pictilisib 0.033

9 successive records from above:
AP4S1 (UniProt Q9Y587)
inactive: [1] -0.039 | filanesib 0.029 | zotarolimus 0.126 | idasanutlin -0.061 | alisertib -0.098 | [2] -0.002 | gefitinib -0.083 | [3] 0.036 | lapatinib -0.047

AP2B1 isoform 2 (UniProt P63010)
inactive: [1] 0.08 | filanesib 0.022 | zotarolimus 0.036 | idasanutlin -0.019 | alisertib -0.062 | [2] 0.012 | gefitinib 0.01 | [3] 0.01 | lapatinib 0.049 | pictilisib 0.015

APOBR (UniProt Q0VD83)
inactive: [1] -0.133 | filanesib 0.01 | zotarolimus -0.039 | idasanutlin 0.007 | alisertib -0.067 | [2] 0.034 | gefitinib 0.024 | [3] 0.055 | lapatinib -0.046 | pictilisib 0.042

APIP (UniProt Q96GX9)
inactive: [1] -0.036 | filanesib -0.046 | zotarolimus -0.055 | idasanutlin -0.061 | alisertib -0.005 | [2] -0.024 | gefitinib 0.011 | [3] 0.065 | lapatinib 0.005 | pictilisib 0.058

AP1S1 (UniProt P61966)
inactive: [1] -0.103 | filanesib -0.001 | zotarolimus 0.034 | idasanutlin -0.1 | alisertib -0.048 | [2] -0.033 | gefitinib -0.009 | [3] 0.018 | lapatinib 0.006 | pictilisib 0.043

ANKRD29 (UniProt Q8N6D5)
inactive: [1] 0.339 | filanesib -0.122 | zotarolimus 0.011 | idasanutlin -0.077 | alisertib -0.044 | [2] 0.279 | gefitinib -0.066 | [3] -0.08 | lapatinib -0.126 | pictilisib 0.177

ANKS1A (UniProt Q92625)
inactive: [1] -0.047 | filanesib -0.042 | zotarolimus 0.08 | idasanutlin -0.012

ANKFY1 isoform 4 (UniProt Q9P2R3)
inactive: [1] -0.099 | filanesib -0.183 | zotarolimus 0.027 | idasanutlin -0.026 | alisertib -0.019 | [2] -0.123 | gefitinib 0.05 | [3] -0.075 | lapatinib -0.022 | pictilisib -0.185

ANKRD27 (UniProt Q96NW4)
inactive: [1] 0.358

Additional entries:

ANKRD28 (UniProt O15084)
inactive: [1] 0.023 | filanesib -0.023 | zotarolimus -0.015 | idasanutlin -0.027 | alisertib -0.067 | [2] 0 | gefitinib 0.004 | [3] -0.001 | lapatinib 0.051 | pictilisib 0.045

APAF1 (UniProt O14727)
inactive: [1] -0.023 | filanesib -0.066 | zotarolimus -0.03 | idasanutlin -0.068 | alisertib 0.08 | [2] 0.279 | gefitinib -0.163 | [3] 0.09 | lapatinib 0.369 | pictilisib -0.04

AP3S1 (UniProt Q92572)
inactive: [1] 0.019 | filanesib 0.037 | zotarolimus -0.027 | idasanutlin -0.006 | alisertib -0.006 | [2] 0.077 | gefitinib -0.012 | [3] -0.043 | lapatinib -0.008 | pictilisib -0.026

ANAPC4 isoform 3 (UniProt Q9UJX5)
inactive: [1] -0.054 | filanesib 0.026 | zotarolimus 0.039 | idasanutlin -0.004 | alisertib -0.091 | [2] -0.025 | gefitinib -0.018 | [3] 0.002 | lapatinib 0.044 | pictilisib -0.024

ANGEL1 (UniProt Q9UNK9)
inactive: [1] 0.024

ANKZF1 (UniProt Q9H8Y5)
inactive: [1] -0.005 | filanesib 0.249 | zotarolimus 0.048 | idasanutlin 0.235 | alisertib -0.034 | [2] 0.042 | gefitinib -0.001 | [3] -0.022 | lapatinib -0.046 | pictilisib -0.002

APMAP (UniProt Q9HDC9)
inactive: [1] -0.041 | filanesib -0.025 | zotarolimus -0.063 | idasanutlin 0.044 | alisertib -0.06 | [2] 0.026 | gefitinib 0.005 | [3] 0.047 | lapatinib -0.023 | pictilisib 0.018

APEH (UniProt P13798)
inactive: [1] -0.011 | filanesib -0.01 | zotarolimus -0.028 | idasanutlin -0.008 | alisertib -0.044 | [2] 0.003 | gefitinib -0.011 | [3] 0.069 | lapatinib -0.048 | pictilisib 0.052

ARF1 (UniProt P84077)
inactive: [1] 0.138 | filanesib -0.061 | zotarolimus 0.072 | idasanutlin 0.027 | alisertib -0.132 | [2] -0.02 | gefitinib -0.204 | [3] 0.076 | lapatinib 0.019

AP4E1 (UniProt Q9UPM8)
inactive: [1] -0.068 | filanesib 0.081 | zotarolimus 0.128 | idasanutlin 0.006 | alisertib 0.054 | [2] -0.067 | gefitinib 0.153 | [3] 0.038 | lapatinib 0.14 | pictilisib 0.016

AP1M1 (UniProt Q9BXS5)
inactive: [1] -0.014 | filanesib 0.01 | zotarolimus -0.005 | idasanutlin -0.01 | alisertib -0.061 | [2] 0.015 | gefitinib 0.037 | [3] 0.022 | lapatinib 0.013 | pictilisib 0.03

ANO6 isoform 2 (UniProt Q4KMQ2)
inactive: [1] -0.027 | filanesib 0.002 | zotarolimus 0.056 | idasanutlin -0.005 | alisertib -0.096 | [2] -0.016 | gefitinib 0.019 | [3] 0.046 | lapatinib 0.001 | pictilisib 0.002

AP3B1 (UniProt O00203)
inactive: [1] 0.025 | filanesib -0.018 | zotarolimus 0.019 | idasanutlin -0.04 | alisertib -0.03 | [2] 0.063 | gefitinib 0.007 | [3] -0.05 | lapatinib -0.003 | pictilisib 0.01

ANXA2 (UniProt H0YMT9)
inactive: [1] -0.204

APH1A (UniProt Q96BI3)
inactive: [1] 0.101 | filanesib -0.039 | zotarolimus -0.062 | idasanutlin 0.005 | alisertib -0.228 | [2] -0.236 | gefitinib 0.043 | [3] 0.059 | lapatinib 0.091 | pictilisib 0.013

ANXA6 (UniProt P08133)
inactive: [1] -0.011 | filanesib -0.023 | zotarolimus 0.002 | idasanutlin -0.041 | alisertib -0.012 | [2] 0.069 | gefitinib 0.014 | [3] 0.039 | lapatinib 0 | pictilisib -0.001

API5 isoform 2 (UniProt Q9BZZ5)
inactive: [1] 0.036 | filanesib -0.062 | zotarolimus 0.052 | idasanutlin -0.029 | alisertib 0.045 | [2] 0.046 | gefitinib 0.039 | [3] 0.037 | lapatinib -0.114 | pictilisib 0.068

APEX1 (UniProt P27695)
inactive: [1] 0.064 | filanesib -0.107 | zotarolimus 0.057 | idasanutlin -0.009 | alisertib -0.096 | [2] 0.101 | gefitinib -0.035 | [3] 0.006 | lapatinib -0.015 | pictilisib 0.017

ARF6 (UniProt P62330)
inactive: [1] -0.065 | filanesib 0.025 | zotarolimus -0.024 | idasanutlin -0.047 | alisertib 0.009 | [2] 0.169 | gefitinib 0.026 | [3] 0.125 | lapatinib -0.008 | pictilisib -0.117

ANXA2 isoform 2 (UniProt P07355)
inactive: [1] -0.009 | filanesib -0.124 | zotarolimus 0.013 | idasanutlin -0.041 | alisertib 0.007 | [2] -0.075 | gefitinib 0.019 | [3] -0.003 | lapatinib -0.002 | pictilisib -0.1
